Results from patent US20110294982A1 (Ablynx, published 2011).
Substitutions are numbered along the chain they refer to. Results are given in words; binding and its absence hold for the method and conditions named. Some entries that bind do so weakly or less than the wild type.

T1: Human alphaL (human) (UniProt P20701)
T1 sequence (looked up): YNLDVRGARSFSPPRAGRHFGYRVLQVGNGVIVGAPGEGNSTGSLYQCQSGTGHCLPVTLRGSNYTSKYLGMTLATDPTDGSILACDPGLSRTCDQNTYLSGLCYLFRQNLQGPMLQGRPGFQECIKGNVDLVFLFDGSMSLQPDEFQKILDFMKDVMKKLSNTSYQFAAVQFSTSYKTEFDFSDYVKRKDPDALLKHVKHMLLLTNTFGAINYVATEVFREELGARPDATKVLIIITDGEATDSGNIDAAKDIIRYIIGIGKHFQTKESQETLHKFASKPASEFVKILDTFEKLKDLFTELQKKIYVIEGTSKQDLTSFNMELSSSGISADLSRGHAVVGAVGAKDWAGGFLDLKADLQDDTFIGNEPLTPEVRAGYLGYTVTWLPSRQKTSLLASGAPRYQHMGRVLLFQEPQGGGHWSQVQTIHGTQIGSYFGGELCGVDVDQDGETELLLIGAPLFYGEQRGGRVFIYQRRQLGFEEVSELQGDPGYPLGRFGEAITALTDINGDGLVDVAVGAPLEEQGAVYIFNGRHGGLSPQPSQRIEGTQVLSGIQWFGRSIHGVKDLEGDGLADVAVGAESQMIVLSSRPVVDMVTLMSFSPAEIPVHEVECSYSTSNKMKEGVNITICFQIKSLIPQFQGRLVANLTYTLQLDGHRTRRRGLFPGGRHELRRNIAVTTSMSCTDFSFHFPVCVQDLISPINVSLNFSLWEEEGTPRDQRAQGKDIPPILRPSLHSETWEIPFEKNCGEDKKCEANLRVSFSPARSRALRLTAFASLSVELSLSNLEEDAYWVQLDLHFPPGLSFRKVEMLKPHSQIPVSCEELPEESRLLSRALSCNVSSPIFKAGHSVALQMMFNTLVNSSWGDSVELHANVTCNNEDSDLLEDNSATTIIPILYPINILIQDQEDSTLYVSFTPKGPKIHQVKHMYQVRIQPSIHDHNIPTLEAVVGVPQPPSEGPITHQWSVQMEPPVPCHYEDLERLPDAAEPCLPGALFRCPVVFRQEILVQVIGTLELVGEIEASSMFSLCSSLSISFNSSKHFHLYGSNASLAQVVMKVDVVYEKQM

B1: 153-G1 (VHH)
VHH: EVQLVESGGGLVQAGGSLRLSCTVSGSTGSINAMGWYRQAPGKQRELVAIIYSSGRIDYADSVKGRFTISRDNAKNTVYLQMNNLQPDDTAAYYCNAANPNTGWQRPHRASWGQGTQVTVSS
B2: 138-C2 (VHH)
VHH: B1 VHH with L11V, R56T, D58B, N84S, Q86K
B3: 139-C2 (VHH)
VHH: B1 VHH with G9R, Y79B, N84S, Q86K
B4: 235-E3 (VHH)
VHH: EVQLVESGGGLVQAGGSLRLSCTVSGSTGSINVMGWYRQAPGKQRELVAIIYSSGTLDYADSVKGRFTISRDNAKNTVYLQMNSLKPDDTAAYYCNAAMQDSAWLRPHRASWGQGTQVTVSS
B5: 153-G1 (SEQ ID NO: 1350) (VHH)
VHH: B1 VHH
B6: 138-A2 (VHH)
VHH: EVQLVESGGELVQAGGSLRLSCAASGSVSSINVMGWYRQAPGKQRELVATISSSGYTDYSDSAKGRFTISRDNKNTVHLQMNSLKPEDTAVYYCRASTLRTGWFTGWGQGTQVTVSS
B7: 152-D4 (VHH)
VHH: B6 VHH with V2M
B8: 152-F2 (VHH)
VHH: B6 VHH with Y56C
B9: 138-B2 (VHH)
VHH: B6 VHH with S25P, S60A
B10: 153-H4 (VHH)
VHH: B6 VHH with E10G, G35A, S54T, T105M
B11: 152-C4 (VHH)
VHH: B6 VHH with E10G, A24T, G35A, S53T, F104L, T105M
B12: 152-F4 (VHH)
VHH: B6 VHH with E10G, G35A, S53T, F104L, T105M
B13: 152-E1 (VHH)
VHH: B6 VHH with E10G, S30A, G35A, S54T, H78Y, V91I, F104L, T105M
B14: 139-F10 (VHH)
VHH: EVQLVESGGGLVQAGGSLRLSCAASGSRLRFELMGWYRQAPGKPRDLVALITSSGSANYADSVKGRFTISRDNAKNTLYLQMNSLKPEDTGVYYCNAHTYTDNLWGQGTQVTVSS
B15: 152-H10 (VHH)
VHH: B14 VHH with L11V, Q13E, S25T, L29F, L33I, S53R, N73S
B16: 152-B10 (VHH)
VHH: B14 VHH with L29F, L33I, P87S
B17: 139-D10 (VHH)
VHH: B14 VHH with V2M
B18: 153-C7 (VHH)
VHH: B14 VHH with E1K, L29F, D61E
B19: 153-C9 (VHH)
VHH: B14 VHH with L29F
B20: 152-G9 (VHH)
VHH: B14 VHH with A14V, L29F
B21: 153-F9 (VHH)
VHH: B14 VHH with K86E
B22: 248-G7 (VHH)
VHH: B14 VHH with G8R
B23: 236-B11 (VHH)
VHH: B14 VHH with L29F, S53R
B24: 236-D5 (VHH)
VHH: B14 VHH with Q13R, L29F, L33I, K43S, P44A, S53N, L78F
B25: 236-B5 (VHH)
VHH: B14 VHH with L29F, L33I, K43R, P44M, A57T
B26: 153-A8 (VHH)
VHH: EVQLVESGGGLVQAGGSVRLSCAASGVIFRFVLMGWYRQAPGKQRELVAQITSSDATNYADSVKGRFTISRDNAKKTVDLQMNSLKPEDTAVYYCLLARGPDVYWGQGTQVTVSS
B27: 138-H2 (VHH)
VHH: EVQLVESGGGLVQAGGSQKLSCAASGSTLIYTMGWYRQALGKKRVFVASISRDGSTIYGDSVKGRFTISRDNAKNTAYLQMNSLKPEDTAVYVCKAEGWYQGYWGQGTQVTVSS
B28: 248-H1 (VHH)
VHH: B27 VHH with S83N
B29: 138-A5 (VHH)
VHH: EVQLVESGGGLVQAGGSLRLSCAASGNTFSINAVGWYRQAPEKQRELVAIILSSGTTDYADSVKGRFTISRDNAKNIVYLQMNSLKPEDTAVYYCRVADREMGWAYWGQGTQVTVSS
B30: 153-E10 (VHH)
VHH: EVQLVESGGGLVQTGGSLRLSCAASGSIFMILAMGWYRQAPGKQRELVTTIIRDGKTYYSDSVKDRFTISRDNAKNTAYLQMNSLKPEDTAVYYCYTKVIVMGAGMDDNDFFGQGTQVTVSS
B31: 138-F2 (VHH)
VHH: EVQLVESGGGLVQAGGSLRLSCAPSSSAVSIVHIQWHRQAPGKQRELVASVNSRGTTNYADSVKGRAIISRDNAKNTVYLQMNSLKPEDTAVYYCYARTLQLGALRDYWGQGTQVTVSS
B32: 139-H10 (VHH)
VHH: EVQLVESGGGLVQAGGSLRLSCAASASILSINTMDWFRRTPGKQRELVSTITRDGRTTYADSVKGRFTLSRDNTKNTVSLQMNSLKPEDTAVYYCLANVETTRGLTKNYWGQGIQVTVSS
B33: 139-B2 (VHH)
VHH: EVQLVESGGGLVQTGGSLRLSCAASGSTFNINAWGWYRQAPGKQRELVAVISSSGSTDYSDAVKGRFTISTVNAGNTVYLEMNSLKPEDTAVYYCRAADSGPWRYWGQGSQVTVSS
B34: 138-G2 (VHH)
VHH: EVQLVESGGGLVQPGGSLRLSCAASGFTLDYYNIGWFRQAPGEEREGVSCVSSSGGSTYYADSVKGRFTISRDNAKNTVYLQMNSLKPEDTAVYYCATLNLFTTCDGPWGYEYDYYGQGTQVTVSS
B35: 138-H5 (VHH)
VHH: B34 VHH with E43K
B36: 138-D2 (VHH)
VHH: B34 VHH with E43K, S53D
B37: 138-E4 (VHH)
VHH: B34 VHH with Y31S
B38: 138-B10 (VHH)
VHH: EVQLVESGGGLVQAGGSLRLSCAASGFTADDYAIGWFRQAPGKEREGVSCISSSDGSTFYADSVKGRFTISSDNAKNTVYLQMNSLKPEDTAVYYCAADPRFEPTLLCTDYDYEDYWGQGTQVTVSS
B39: 138-D7 (VHH)
VHH: EVQLVESGGGLVQAGGSLRLSCAASGFTFDDYAIGWFRQAPGKEREGVSCISSSDGYTYYADSVKDRFTISSDDAKNTVYLQMNSLKPEDTAVYYCAATPRRFGWCSDYBEYDYWGQGTQVTVSS
B40: 138-H7 (VHH)
VHH: B39 VHH with T58S, Y59F, D62N, D66G, D74N, B110D

Legend:
[1] = biological target: Human beta2 (human) (UniProt P05107); test: specificity ELISA on coated integrins, periplasmic extract
[2] = biological target: T1, Human alphaL (human); test: as above

| Binder | binding [1] | binding [2] |
| --- | --- | --- |
| B1 | binds | – |
| B2 | binds | – |
| B3 | binds | – |
| B4 | binds | – |
| B5 | binds | – |
| B6 | binds | – |
| B7 | binds | – |
| B8 | binds | – |
| B9 | binds | – |
| B10 | binds | – |
| B11 | binds | – |
| B12 | binds | – |
| B13 | binds | – |
| B14 | binds | – |
| B15 | binds | – |
| B16 | binds | – |
| B17 | binds | – |
| B18 | binds | – |
| B19 | binds | – |
| B20 | binds | – |

| Binder | binding [1] | binding [2] |
| --- | --- | --- |
| B21 | binds | – |
| B22 | binds | – |
| B23 | binds | – |
| B24 | binds | – |
| B25 | binds | – |
| B26 | binds | – |
| B27 | binds | – |
| B28 | binds | – |
| B29 | binds | – |
| B30 | binds | – |
| B31 | binds | – |
| B32 | binds | – |
| B33 | binds | – |
| B34 | – | binds |
| B35 | – | binds |
| B36 | – | binds |
| B37 | – | binds |
| B38 | – | binds |
| B39 | – | binds |
| B40 | – | binds |
